Results taken from PMC5087076.
These are yes or no findings as the source states them, for the method shown. In cells and extracts the contact can be indirect. Some binding calls cover weakened binding; strength is not graded here. One block for each substance: values may come before it.

Protein sequences, listed by entry. Tags and fused reporters are not part of them.
UniProt Q14289: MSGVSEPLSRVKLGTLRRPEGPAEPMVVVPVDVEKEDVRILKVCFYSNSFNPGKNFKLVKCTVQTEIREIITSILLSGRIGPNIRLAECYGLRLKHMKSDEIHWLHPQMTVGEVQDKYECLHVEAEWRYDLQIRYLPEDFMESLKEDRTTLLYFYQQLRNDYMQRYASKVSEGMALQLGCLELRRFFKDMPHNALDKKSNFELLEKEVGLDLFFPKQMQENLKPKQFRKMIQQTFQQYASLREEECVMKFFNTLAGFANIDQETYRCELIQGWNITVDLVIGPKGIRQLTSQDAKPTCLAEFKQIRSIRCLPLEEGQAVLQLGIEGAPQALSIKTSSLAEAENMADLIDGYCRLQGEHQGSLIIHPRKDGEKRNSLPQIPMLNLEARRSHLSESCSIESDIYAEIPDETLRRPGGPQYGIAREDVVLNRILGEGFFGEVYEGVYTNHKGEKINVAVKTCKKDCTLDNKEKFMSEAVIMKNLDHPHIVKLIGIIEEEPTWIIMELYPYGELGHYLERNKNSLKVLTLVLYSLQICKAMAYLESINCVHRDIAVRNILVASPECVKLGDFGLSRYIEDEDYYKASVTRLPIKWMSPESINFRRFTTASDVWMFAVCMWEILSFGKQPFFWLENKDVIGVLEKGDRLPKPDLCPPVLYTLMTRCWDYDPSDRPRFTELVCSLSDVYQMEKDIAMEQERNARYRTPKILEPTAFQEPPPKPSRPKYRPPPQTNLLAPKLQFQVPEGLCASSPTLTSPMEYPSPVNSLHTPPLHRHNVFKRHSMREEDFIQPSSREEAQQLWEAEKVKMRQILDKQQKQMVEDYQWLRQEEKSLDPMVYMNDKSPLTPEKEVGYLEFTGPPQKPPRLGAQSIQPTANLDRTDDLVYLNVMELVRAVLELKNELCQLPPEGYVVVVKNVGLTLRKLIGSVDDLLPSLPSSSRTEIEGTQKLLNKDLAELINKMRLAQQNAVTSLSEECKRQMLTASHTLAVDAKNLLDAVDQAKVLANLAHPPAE
UniProt Q05397: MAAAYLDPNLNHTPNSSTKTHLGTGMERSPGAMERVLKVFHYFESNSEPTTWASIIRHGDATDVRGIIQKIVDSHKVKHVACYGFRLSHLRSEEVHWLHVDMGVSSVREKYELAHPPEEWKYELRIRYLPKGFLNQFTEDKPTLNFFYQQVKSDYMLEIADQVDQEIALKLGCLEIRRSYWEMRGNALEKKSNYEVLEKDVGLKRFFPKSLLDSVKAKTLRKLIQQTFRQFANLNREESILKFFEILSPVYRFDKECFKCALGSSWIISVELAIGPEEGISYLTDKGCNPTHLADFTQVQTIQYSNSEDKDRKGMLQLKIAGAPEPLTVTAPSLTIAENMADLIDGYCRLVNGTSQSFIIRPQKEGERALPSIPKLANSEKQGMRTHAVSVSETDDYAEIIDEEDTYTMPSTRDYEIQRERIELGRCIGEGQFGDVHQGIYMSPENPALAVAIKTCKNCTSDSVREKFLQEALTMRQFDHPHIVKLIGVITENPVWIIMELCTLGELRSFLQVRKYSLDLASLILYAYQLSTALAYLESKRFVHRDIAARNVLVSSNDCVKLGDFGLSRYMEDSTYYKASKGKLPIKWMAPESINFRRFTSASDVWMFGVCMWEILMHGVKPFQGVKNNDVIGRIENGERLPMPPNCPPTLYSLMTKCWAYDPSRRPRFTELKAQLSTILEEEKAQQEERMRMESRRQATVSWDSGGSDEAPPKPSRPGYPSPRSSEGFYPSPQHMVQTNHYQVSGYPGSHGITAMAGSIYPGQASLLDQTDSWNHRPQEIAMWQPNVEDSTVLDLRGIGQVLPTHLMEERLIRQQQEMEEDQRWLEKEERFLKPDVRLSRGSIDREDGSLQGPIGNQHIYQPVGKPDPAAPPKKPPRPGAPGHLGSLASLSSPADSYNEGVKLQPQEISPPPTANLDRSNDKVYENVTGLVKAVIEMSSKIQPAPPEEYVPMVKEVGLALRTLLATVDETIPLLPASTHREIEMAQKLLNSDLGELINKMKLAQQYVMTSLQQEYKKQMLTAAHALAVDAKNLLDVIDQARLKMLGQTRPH
UniProt Q9ULZ3: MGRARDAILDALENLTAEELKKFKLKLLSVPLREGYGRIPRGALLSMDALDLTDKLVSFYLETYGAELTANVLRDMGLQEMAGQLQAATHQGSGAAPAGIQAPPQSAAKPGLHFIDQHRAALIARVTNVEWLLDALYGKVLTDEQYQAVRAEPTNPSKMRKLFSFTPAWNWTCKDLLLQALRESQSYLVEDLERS

Legend:
[1] = target: p-Pyk2 (phosphorylated Pyk2, Tyr402), endogenous in THP-1 (human (endogenous in THP-1)) (UniProt Q14289); assay: proximity ligation; in situ PLA (Duolink) in ASC-mCherry-expressing THP-1 cells, unstimulated or stimulated with nigericin (1 h) or poly(dA:dT) (4 h); probes rabbit anti-p-FAK or anti-p-Pyk2 with mouse anti-mCherry; confocal microscopy
[2] = target: FAK (focal adhesion kinase), endogenous in HEK293T (human (endogenous in HEK293T)) (UniProt Q05397); assay: co-IP; extracts (1 mg, RIPA buffer) of HEK293T cells 48 h after transfection; immunoprecipitated with anti-FAK or anti-FLAG M2 (1 ug) for 24 h, Protein G magnetic beads 1 h at 4 C; Western blot; normal rabbit or mouse IgG as control
[3] = target: Pyk2-Flag (proline-rich tyrosine kinase 2) (UniProt Q14289); assay: as above

- binding [1]: binds
Substance: ASC-mCherry (from UniProt Q9ULZ3 1-195)

- binding [2]: binds
Substance: ASC-Flag (apoptosis-associated speck-like protein containing CARD, wild type) (from UniProt Q9ULZ3 1-195)

- binding [3]: binds
Substance: ASC (untagged wild type, overexpressed) (from UniProt Q9ULZ3 1-195)
